Results published in PMC8805577.
Results are given in words; binding and its absence hold for the method and conditions named. In cells and extracts the contact can be indirect. Some entries that bind do so weakly or less than the wild type. Sequences can lack the tags named with a protein.

Sequences of proteins named here, by UniProt entry; tags and fusion partners are left off. A change or cut given only in a name is not applied to a line headed by its entry.
UniProt P15976: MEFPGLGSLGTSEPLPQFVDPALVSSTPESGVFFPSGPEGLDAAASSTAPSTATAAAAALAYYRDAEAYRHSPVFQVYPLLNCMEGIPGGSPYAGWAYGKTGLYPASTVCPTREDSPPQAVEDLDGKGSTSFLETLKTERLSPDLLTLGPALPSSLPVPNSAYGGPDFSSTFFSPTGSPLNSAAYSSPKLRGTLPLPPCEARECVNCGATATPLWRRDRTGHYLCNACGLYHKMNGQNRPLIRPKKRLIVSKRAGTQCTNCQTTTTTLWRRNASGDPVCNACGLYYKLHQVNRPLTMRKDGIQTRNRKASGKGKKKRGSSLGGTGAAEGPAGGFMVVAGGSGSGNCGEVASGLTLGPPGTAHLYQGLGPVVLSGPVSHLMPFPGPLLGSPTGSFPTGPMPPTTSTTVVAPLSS

Columns and labels:
[1] = target: T1, FLAG-nSREBP2 (1-468aa), active (proteolytically activated) human SREBP2 (human) (UniProt Q12772); experiment: co-IP; truncated GATA1 with FLAG-nSREBP2 (1-468aa), and truncated FLAG-nSREBP2 with GATA1; cells not stated for these panels
T1 sequence: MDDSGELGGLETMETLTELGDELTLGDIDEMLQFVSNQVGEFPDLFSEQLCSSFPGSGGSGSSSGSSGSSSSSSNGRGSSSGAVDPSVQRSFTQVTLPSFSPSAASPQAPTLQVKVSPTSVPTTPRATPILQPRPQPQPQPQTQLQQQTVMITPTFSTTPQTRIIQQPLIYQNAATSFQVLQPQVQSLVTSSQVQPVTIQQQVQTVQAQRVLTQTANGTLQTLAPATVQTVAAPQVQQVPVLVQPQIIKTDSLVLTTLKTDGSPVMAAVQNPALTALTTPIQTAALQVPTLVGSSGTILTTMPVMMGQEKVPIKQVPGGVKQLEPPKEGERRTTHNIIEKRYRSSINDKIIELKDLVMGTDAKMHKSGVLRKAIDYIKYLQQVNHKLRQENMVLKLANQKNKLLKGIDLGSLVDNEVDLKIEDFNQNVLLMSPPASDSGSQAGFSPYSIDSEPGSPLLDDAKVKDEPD

[2] = target: T1, FLAG-nSREBP2 (1-468aa), active (proteolytically activated) human SREBP2 (human); experiment: co-IP; reciprocal co-IP of exogenous FLAG-nSREBP2 and GFP-GATA1 in 293T cells; Pierce IP lysis buffer, beads conjugated with antibodies, 4 °C for 12 h, five washes, immunoblot
[3] = target: T2, FLAG-SREBP2 (292-468 aa), truncated FLAG-nSREBP2 (human) (UniProt Q12772); experiment: co-IP; truncated GATA1 with FLAG-nSREBP2 (1-468aa), and truncated FLAG-nSREBP2 with GATA1; cells not stated for these panels
T2 sequence: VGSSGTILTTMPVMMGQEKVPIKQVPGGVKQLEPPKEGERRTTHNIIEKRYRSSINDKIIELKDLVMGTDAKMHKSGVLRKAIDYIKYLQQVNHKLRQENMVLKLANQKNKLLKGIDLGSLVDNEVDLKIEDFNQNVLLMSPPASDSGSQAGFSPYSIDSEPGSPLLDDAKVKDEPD

[4] = target: GFP-GATA1 full length (FL) (human) (UniProt P15976); experiment: co-IP; reciprocal co-IP of exogenous FLAG-nSREBP2 and GFP-GATA1 in 293T cells; Pierce IP lysis buffer, beads conjugated with antibodies, 4 °C for 12 h, five washes, immunoblot

“GFP-GATA1 ZF (zinc finger domains) (from UniProt P15976 199-318) (domain or fragment)” was tested, and the binding [1] was “binds”.

With “GFP-GATA1 full length (FL) (from UniProt P15976 1-413)” the binding [2] was “binds” and the binding [3] was “binds”.

B1: FLAG-nSREBP2 (1-468aa), active (proteolytically activated) human SREBP2 (domain or fragment, UniProt Q12772 1-468)
chain: MDDSGELGGLETMETLTELGDELTLGDIDEMLQFVSNQVGEFPDLFSEQLCSSFPGSGGSGSSSGSSGSSSSSSNGRGSSSGAVDPSVQRSFTQVTLPSFSPSAASPQAPTLQVKVSPTSVPTTPRATPILQPRPQPQPQPQTQLQQQTVMITPTFSTTPQTRIIQQPLIYQNAATSFQVLQPQVQSLVTSSQVQPVTIQQQVQTVQAQRVLTQTANGTLQTLAPATVQTVAAPQVQQVPVLVQPQIIKTDSLVLTTLKTDGSPVMAAVQNPALTALTTPIQTAALQVPTLVGSSGTILTTMPVMMGQEKVPIKQVPGGVKQLEPPKEGERRTTHNIIEKRYRSSINDKIIELKDLVMGTDAKMHKSGVLRKAIDYIKYLQQVNHKLRQENMVLKLANQKNKLLKGIDLGSLVDNEVDLKIEDFNQNVLLMSPPASDSGSQAGFSPYSIDSEPGSPLLDDAKVKDEPD
For B1, the binding [4] was “binds”.
